In all, about 320,000 compounds went through this assay and about 22,000 (6.9%) were called active. Inconclusive results, whose numbers are uncertain, are shown with a selection of clear calls. The call rests on the fitted dose curve; in most records, active means well fitted inhibition curve with a large enough effect; inconclusive means small, poorly fitted or top-dose-only effect, or another doubt; inactive means no such curve, though single readings can be large or run the other way. Potencies of inconclusive entries are doubtful fits and often do not repeat.
Assay: Primary qHTS for delayed death inhibitors of the malarial parasite plastid, 96 hour incubation
Conditions: P. falciparum luciferase reporter growth; series mostly up to 28.7 µM; activity change, negative = inhibition: at the top concentration
Method in brief: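 Delayed-death screen, second-generation endpoint: infected erythrocytes, 2% hematocrit, 0.05% parasitemia final; 96 hours at 37 C, 5% CO2; luciferase detection reagent; luminescence decrease equals reduced growth.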
On the % scale 0 is the no-effect control and ±100 the full control effect; potency means the concentration at half of the fitted maximal effect.

Row | SMILES | Potency | activity change, negative = inhibition
1 | Cc1nn(-c2ccccc2)c(C)c1/C=N/NC(=O)c1ccccc1O | active: 6.57 µM | –
2 | O=C(c1cccs1)N1CCN(c2nc3c(F)cc(F)cc3s2)CC1 | inconclusive: 14.7 µM [inhibitor, single point] | –
3 | O=C(N/N=C/c1cccc(OC(=O)c2ccc3c(c2)OCO3)c1)c1cncc(Br)c1 | – | inactive: -28.3%
4 | CSc1nsc(/C=C/Nc2ccc(F)cc2F)c1C#N | inconclusive: 18.5 µM [inhibitor, single point] | –
5 | COc1ccccc1Nc1nc(N)nc(CN2CCOCC2)n1 | – | inactive: 9.43%
6 | CN(NS(=O)(=O)c1ccc(F)cc1)c1ncc(C(F)(F)F)cc1Cl | inconclusive: 4.15 µM [inhibitor, full curve, poor fit] | –
7 | O=C(c1cccc(N2CCCC2=O)c1)N1CCN(c2ccccc2)CC1 | inconclusive: 0.586 µM [inhibitor, full curve, poor fit] | –
8 | CC1CCN(CCc2nc3ccccc3[nH]2)CC1 | inconclusive: 18.5 µM [inhibitor, single point] | –
9 | CNS(=O)(=O)c1ccc(C(=O)NCC(=O)NCCc2ccc3c(c2)OCCO3)cc1 | inconclusive: 10.4 µM [inhibitor, single point] | –
10 | C#CCNC(=O)C1=C[C@@H](C2CC2)C[C@@H](OCCCCO)O1 | – | inactive: 28.4%
11 | CCc1ccc(NC(=O)C2CCN(C(=O)N3CCOc4ccccc43)CC2)cc1 | – | inactive: 7.26%
12 | O=C(CSc1nc2ccccc2[nH]1)Nc1ccc(N2CCOCC2)cc1 | inconclusive: 18.5 µM [inhibitor, single point] | –
13 | O=C(Nc1ccc(F)cc1F)N1CCCN(c2ccc([N+](=O)[O-])cn2)CC1 | inconclusive: 11.7 µM [inhibitor, single point] | –
14 | O=C(c1cccnc1)C1CCCN(Cc2nc(Cc3ccccc3)no2)C1 (stereo not drawn) | – | inactive: 0%
15 | CC(Oc1ccc(Cl)cc1)C(=O)NNC(=S)NC(=O)c1ccco1 (stereo not drawn) | inconclusive: 16.5 µM [inhibitor, single point] | –
16 | COc1ccc(-n2cc3ccc([N+](=O)[O-])cc3n2)cc1 | – | inactive: 0%
17 | CN(c1ccccc1)S(=O)(=O)c1cccc(NC(=O)CN2CCCc3ccccc32)c1 | inconclusive: 2.94 µM [inhibitor, full curve] | –
18 | CNC(=S)Nc1sc2c(c1C(=O)OC)CCC2 | inconclusive: 11.7 µM [inhibitor, single point] | –
19 | Cc1nc2ccccc2c(=O)n1NC(=O)c1ccc(C(C)(C)C)cc1 | inconclusive: 14.7 µM [inhibitor, single point] | –
20 | CC(=O)c1c(C)nc(-c2ccc(Cl)cc2)nc1N=CN(C)C | inconclusive: 9.28 µM [inhibitor, partial curve, poor fit] | –
21 | Clc1ccccc1CNc1nc2ccccc2n2cnnc12 | – | inactive: -1.43%
22 | O=C(c1ccc(F)cc1)C1CCN(S(=O)(=O)c2ccccc2)CC1 | inconclusive: 18.5 µM [inhibitor, single point] | –
23 | CS(=O)(=O)NCCSc1cc(C(F)(F)F)nc2ccccc12 | – | inactive: 0.946%
24 | O=C(NCc1ccco1)c1ccc(Cn2c(=O)c3sccc3n(Cc3ccc(F)cc3)c2=O)cc1 | inconclusive: 18.5 µM [inhibitor, single point] | –
25 | Cc1ccc2c(Cl)cc(Cl)c(OCC(=O)N3CCCC3)c2n1 | – | inactive: 27.7%

Row | SMILES | Potency | activity change, negative = inhibition
26 | Cc1c(C(=O)N2CCc3ccccc32)cnn1C | – | inactive: 6.84%
27 | OCCC1CN(Cc2ccccc2-c2ccco2)CCN1Cc1ccsc1 (stereo not drawn) | inconclusive: 13.1 µM [inhibitor, single point] | –
28 | CCOC(=O)/C(N=Nc1sc(C(=O)OC)c(C)c1C(=O)OCC)=C(\O)CCl | inconclusive: 0.0928 µM [inhibitor, single point] | –
29 | COc1ccc(Oc2c(C(F)(F)F)oc3cc(OCC(=O)O)ccc3c2=O)cc1 | active: 9.28 µM | –
30 | N#CCC(=O)N/N=C/c1ccc(SCC(=O)Nc2ccccc2)o1 | inconclusive: 18.5 µM [inhibitor, single point] | –
31 | CCn1c(SCC(=O)NC(C)(C)C)nnc1-c1ccccn1 | inconclusive: 18.5 µM [inhibitor, single point] | –
32 | CCOC(=O)c1c(C)n(CC(O)c2ccccc2)c2ccc(O)cc12 (stereo not drawn) | active: 11.7 µM | –
33 | CCOC(=O)c1ccc(-n2c(CC)nc3ccccc3c2=O)cc1 | – | inactive: 12.5%
34 | CCOC(=O)C1(CCOc2ccccc2)CCN(Cc2ccc(F)c(OC)c2)CC1 | active: 14.7 µM | –
35 | c1ccc2[nH]c(C3CC3)nc2c1 | – | inactive: 26.6%
36 | COc1cccc(NC(=O)CSc2nc(O)c(C)c(=O)n2-c2ccc(C)cc2)c1 | active: 10.4 µM | –
37 | Cc1ccccc1NC(=O)/C(C#N)=C\c1cc(C)n(-c2ccc(C(=O)O)cc2)c1C | inconclusive: 11.7 µM [inhibitor, single point] | –
38 | Cc1cc(NS(=O)(=O)c2ccc(NC(=O)Cc3ccccc3)cc2)nc(C)n1 | inconclusive: 4.65 µM [inhibitor, partial curve, poor fit] | –
39 | COc1ccc(Nc2ccc(N3C(=O)CCCC3=O)cc2[N+](=O)[O-])cc1OC | inconclusive: 18.5 µM [inhibitor, single point] | –
40 | CC(C)Oc1ccc(CNC(=O)Cn2c(=O)c3cccn3c3cccnc32)cc1 | active: 14.7 µM | –
41 | CC(C)NC(=O)C(c1ccc(F)cc1)N(C(=O)CCC(=O)Nc1ccccn1)c1ccccc1F (stereo not drawn) | – | inactive: 0.184%
42 | CCOc1cccc2sc(NC(=O)c3ccc(Br)s3)nc12 | active: 7.38 µM | –
43 | CCN(CC(=O)Nc1ccc(NC(C)=O)cc1)C(=O)/C=C/c1c(C)nn(-c2ccc(F)cc2)c1Cl | inconclusive: 11.7 µM [inhibitor, partial curve] | –
44 | Nc1cc(N)nc(SCC(=O)Nc2ccccc2)n1 | inconclusive: 14.7 µM [inhibitor, single point] | –
45 | CC1Cc2ccccc2N1C(=S)NC(=O)c1ccco1 (stereo not drawn) | – | inactive: -4.29%
46 | COc1cc([N+](=O)[O-])c2nccnc2c1 | active: 9.28 µM | –
47 | COc1cc(NC(=O)CCc2nc(-c3cccs3)no2)cc(OC)c1OC | inconclusive: 16.5 µM [inhibitor, single point] | –
48 | CCOC(=O)C1CCN(C(=O)CCNS(=O)(=O)c2ccc3c(c2)CCN3C(=O)CC)CC1 | inconclusive: 18.5 µM [inhibitor, partial curve, poor fit] | –
49 | Cc1c(C(=O)O)[nH]c2c1C(=O)CC(c1ccccc1)C2 (stereo not drawn) | inconclusive: 7.38 µM [inhibitor, partial curve, poor fit] | –
50 | COc1ccc(C2C(O)C(c3c[nH]c4ccccc34)=NN2C(=O)CCl)cc1 (stereo not drawn) | inconclusive: 2.94 µM [inhibitor, full curve] | –

Looked up above:
OCCC1CN(Cc2ccccc2-c2ccco2)CCN1Cc1ccsc1 (stereo not drawn) – Potency: inconclusive: 13.1 µM [inhibitor, single point]
CC1Cc2ccccc2N1C(=S)NC(=O)c1ccco1 (stereo not drawn) – activity change, negative = inhibition: inactive: -4.29%
CCN(CC(=O)Nc1ccc(NC(C)=O)cc1)C(=O)/C=C/c1c(C)nn(-c2ccc(F)cc2)c1Cl – Potency: inconclusive: 11.7 µM [inhibitor, partial curve]
N#CCC(=O)N/N=C/c1ccc(SCC(=O)Nc2ccccc2)o1 – Potency: inconclusive: 18.5 µM [inhibitor, single point]
Cc1c(C(=O)N2CCc3ccccc32)cnn1C – activity change, negative = inhibition: inactive: 6.84%

Following part:

Row | SMILES | Potency | activity change, negative = inhibition
51 | O=C(Nc1ncc2c(n1)-c1ccccc1CC2)C1CC1 | inconclusive: 18.5 µM [inhibitor, single point] | –
52 | O=C(NC(=S)Nc1cc([N+](=O)[O-])ccc1O)c1cccnc1 | inconclusive: 2.94 µM [inhibitor, partial curve, poor fit] | –
53 | CC(Sc1cccc[n+]1[O-])C(=O)Nc1ccc(Oc2ccccc2)cc1 (stereo not drawn) | inconclusive: 1.85 µM [inhibitor, partial curve, poor fit] | –
54 | Cc1nc(Nc2ccccc2Cl)sc1C(=O)Nc1ccccc1 | – | inactive: 14.9%
55 | N#C/C(=C(/O)c1ccccc1F)c1nc2cc(C(F)(F)F)ccc2s1 | inconclusive: 18.5 µM [inhibitor, single point] | –
56 | O=C1Cc2ccccc2C(=O)N1c1cccc(Cl)c1 | – | inactive: 0.503%
57 | Clc1cc(Cl)cc(Nc2ncnc(-n3cccc3)n2)c1 | inconclusive: 18.5 µM [inhibitor, single point] | –
58 | CCOC(=O)N1CCC(N2CC34C=CC(O3)C(C(=O)Nc3ccc(OCC)cc3)C4C2=O)CC1 (stereo not drawn) | inconclusive: 18.5 µM [inhibitor, single point] | –
59 | CCCCc1ccc(N=N/C(C(=O)Nc2cc(OC)c(NC(C)=O)cc2OC)=C(/C)O)cc1 | active: 4.65 µM | –
60 | Cc1cc(C)c(S(=O)(=O)N2CCN=C2c2ccccc2)cc1C | inconclusive: 8.28 µM [inhibitor, partial curve, poor fit] | –
61 | Cn1c2ccc(Br)cc2c2nnc(SCC(=O)O)nc21 | – | inactive: 2.44%
62 | CC(C)SCCCCOc1ccc2ccccc2c1 | inconclusive: 8.28 µM [inhibitor, single point] | –
63 | COc1ccc(NC(=O)c2ccc(C#N)cc2)cc1NS(=O)(=O)c1ccc(F)cc1 | – | inactive: -3.04%
64 | COCCCNC(=S)NCCCNc1nc2cc3c(cc2cc1C#N)OCO3 | inconclusive: 18.5 µM [inhibitor, single point] | –
65 | Nc1nnnn1CC(=O)N/N=C/c1ccccn1 | – | inactive: -1.06%
66 | COc1ccc(NC2CCCN(C(=O)c3ccc4[nH]c(C)c(C)c4c3)C2)cc1 (stereo not drawn) | active: 13.1 µM | –
67 | COc1ccc(Cc2nnc(NS(=O)(=O)c3ccc(NC(C)=O)cc3)s2)cc1 | inconclusive: 0.0294 µM [inhibitor, full curve, poor fit] | –
68 | NC(=O)c1cccc2ccccc12 | – | inactive: 31.5%
69 | O=C(COC(=O)c1ccc(-c2nnc(-c3ccccc3)o2)cc1)c1ccccc1 | inconclusive: 18.5 µM [inhibitor, single point] | –
70 | COc1ccc(S(=O)(=O)N2CCCCCC2)cc1C(=O)N(C)CC(=O)Nc1ccccc1Br | inconclusive: 11.7 µM [inhibitor, partial curve, poor fit] | –
71 | CCOC(=O)c1ccc(NC(=O)C2(c3ccccc3)CCOCC2)cc1 | inconclusive: 6.57 µM [inhibitor, partial curve, poor fit] | –
72 | CCOC(=O)c1sc(NC(=O)OC)c(C(=O)OC)c1C | – | inactive: 35%
73 | COc1ccc(N2CCN(CC(=O)Nc3cc(C)on3)CC2)cc1 | – | inactive: 18.7%

Source: PubChem BioAssay AID504834 (National Center for Advancing Translational Sciences (NCATS), 2011)
